# Measured values reported in patent US20050187608A1, “Radioprotective compound coating for medical devices” (priority 2004, published 2005).
# For at least one compound, name, drawing or mass did not settle the structure.
# Tests used:
# [1] = system: monocyte chemotactic protein (MCP-1); test: Cytokine levels in vascular tissue after delivery from a stent; format: in vivo; settings: delivered from a stent
# neointimal hyperplasia = test: Porcine studies with rapamycin-coated stents; format: in vivo; settings: porcine and rabbit models, nonerodible polymeric stent coating, 35-430 ug/15-18 mm coronary stent, maximal at about twenty-eight to thirty days
compound,measurement,setting,value
"CO[C@H]1C[C@@H]2CC[C@@H](C)[C@@](O)(O2)C(=O)C(=O)N2CCCC[C@H]2C(=O)O[C@H]([C@H](C)C[C@@H]2CC[C@@H](O)[C@H](OC)C2)CC(=O)[C@H](C)/C=C(\C)[C@@H](O)[C@@H](OC)C(=O)[C@H](C)C[C@H](C)/C=C/C=C/C=C/1C [Rapamycin, rapamycin]",reduction of monocyte chemotactic protein (MCP-1) levels in the vascular wall,[1],highly effective in reducing monocyte chemotactic protein (MCP-1) levels
same,peak reduction in neointimal hyperplasia,neointimal hyperplasia,fifty to fifty-five
